# Assay results published in patent US12611470B2, “Chromatin-opening element for stable long term gene expression” (CZ Biohub SF, LLC, priority 2019, dated 2026).
# Some entries share one result that the patent states for a list of compounds.
# B1: Candidate 6-3: Truncated SRF-UCOE variant having a 241 base pair 3′ end deletion, SEQ ID NO:4 (nucleic acid)
# DNA: GCACACGACCACAATTCCACTGAAAGCATTTTAATACGGAACTTGTCACTCCCAGGGAGCCTCCGCTCAGCCGGCAGTTGGTTCATTTCAATCCCCACGACAACCCTTCAAAGTGCAGGGCAGACAGCAGGTGGCTCTGCCCAGGCGCCTGGATCACAGCCCGGCCTGCAGCCCTCACCTGGGCGCGGGGAGACCCTGAGGACGCTCCTCCAGGCGGCGCTGGCCGGGGCCTGCGGACACGGACGGGCGGGCTGAGCTCCGGGACCCCTCCCCGCGCCCCGCACCCCGCACCCCGCACCCCGCACCCCGCACCCGGCGCTCACCCGTCCCAGCCCCGCCGCCCGCAGCCCCAGCTGCAACGCAGCCACCGCCGCCATCGCACCCGGCCCCGCGGGCGCTTCCGGGACGCAGGAGGCATCTGCATCCGGGGCGCCGCTGAGTCCCGCCCAGAGCCCCGCCCCCGGCTCCAGGTTCTGCGAGCGGCTTCCGCCGGGCTGCTCCGCGGGCGCGTCGGCCATGAGCGAGTTGCCGGGCGACGTGCGGGCGTTTCTGCGGGAGCACCCGAGCCTGCGGCTCCAGACGGACGCCCGCAAGGTTCGCAGCGCGGGAGGGGAACGGAGTGGCGGAGAAGGGCGCAGTTGGGATGAGGGGCTGAGGGGAGGGCAGGGGAGAGGAGAGGGCAGGGGAGAGGGGAGAGGGGAGAGCAGGAGAGAGGGGAAGGCAGGGGAGAGGGCGCGGCGGGATCAGGGGAGGAGAGGGAA
# B2: Candidate 6: Full length SRF-UCOE, SEQ ID NO:1; region between human SURF1 and SURF2 including first introns, chr9 (nucleic acid, listed as Homo sapiens)
# DNA: GCACACGACCACAATTCCACTGAAAGCATTTTAATACGGAACTTGTCACTCCCAGGGAGCCTCCGCTCAGCCGGCAGTTGGTTCATTTCAATCCCCACGACAACCCTTCAAAGTGCAGGGCAGACAGCAGGTGGCTCTGCCCAGGCGCCTGGATCACAGCCCGGCCTGCAGCCCTCACCTGGGCGCGGGGAGACCCTGAGGACGCTCCTCCAGGCGGCGCTGGCCGGGGCCTGCGGACACGGACGGGCGGGCTGAGCTCCGGGACCCCTCCCCGCGCCCCGCACCCCGCACCCCGCACCCCGCACCCCGCACCCGGCGCTCACCCGTCCCAGCCCCGCCGCCCGCAGCCCCAGCTGCAACGCAGCCACCGCCGCCATCGCACCCGGCCCCGCGGGCGCTTCCGGGACGCAGGAGGCATCTGCATCCGGGGCGCCGCTGAGTCCCGCCCAGAGCCCCGCCCCCGGCTCCAGGTTCTGCGAGCGGCTTCCGCCGGGCTGCTCCGCGGGCGCGTCGGCCATGAGCGAGTTGCCGGGCGACGTGCGGGCGTTTCTGCGGGAGCACCCGAGCCTGCGGCTCCAGACGGACGCCCGCAAGGTTCGCAGCGCGGGAGGGGAACGGAGTGGCGGAGAAGGGCGCAGTTGGGATGAGGGGCTGAGGGGAGGGCAGGGGAGAGGAGAGGGCAGGGGAGAGGGGAGAGGGGAGAGCAGGAGAGAGGGGAAGGCAGGGGAGAGGGCGCGGCGGGATCAGGGGAGGAGAGGGAAGGGGGCGCGGCAGGAGGGGGCACCAGGGAGCGGAGCCCTGGCCCTCCTGACGTCCTGCCCGCCCACGCGTCCGCAGGTGAGGTGCATCCTGACAGGTCACGAGCTGCCCTGCCGCCTGCCGGAGCTCCAGGTCTACACCCGCGGCAAAAAGTACCAGCGGCTGGTCCGCGCCTCCCCGGCCTTCGACTATGCAGAGTTCGAGCCGCACATCGTGCCCAGCACCAAGAACCCGTAGGTGGTC
# B3: Candidate 6-1: Truncated SRF-UCOE variant having a 106 base pair 5′ end deletion, SEQ ID NO:2 (nucleic acid)
# DNA: TTCAAAGTGCAGGGCAGACAGCAGGTGGCTCTGCCCAGGCGCCTGGATCACAGCCCGGCCTGCAGCCCTCACCTGGGCGCGGGGAGACCCTGAGGACGCTCCTCCAGGCGGCGCTGGCCGGGGCCTGCGGACACGGACGGGCGGGCTGAGCTCCGGGACCCCTCCCCGCGCCCCGCACCCCGCACCCCGCACCCCGCACCCCGCACCCGGCGCTCACCCGTCCCAGCCCCGCCGCCCGCAGCCCCAGCTGCAACGCAGCCACCGCCGCCATCGCACCCGGCCCCGCGGGCGCTTCCGGGACGCAGGAGGCATCTGCATCCGGGGCGCCGCTGAGTCCCGCCCAGAGCCCCGCCCCCGGCTCCAGGTTCTGCGAGCGGCTTCCGCCGGGCTGCTCCGCGGGCGCGTCGGCCATGAGCGAGTTGCCGGGCGACGTGCGGGCGTTTCTGCGGGAGCACCCGAGCCTGCGGCTCCAGACGGACGCCCGCAAGGTTCGCAGCGCGGGAGGGGAACGGAGTGGCGGAGAAGGGCGCAGTTGGGATGAGGGGCTGAGGGGAGGGCAGGGGAGAGGAGAGGGCAGGGGAGAGGGGAGAGGGGAGAGCAGGAGAGAGGGGAAGGCAGGGGAGAGGGCGCGGCGGGATCAGGGGAGGAGAGGGAAGGGGGCGCGGCAGGAGGGGGCACCAGGGAGCGGAGCCCTGGCCCTCCTGACGTCCTGCCCGCCCACGCGTCCGCAGGTGAGGTGCATCCTGACAGGTCACGAGCTGCCCTGCCGCCTGCCGGAGCTCCAGGTCTACACCCGCGGCAAAAAGTACCAGCGGCTGGTCCGCGCCTCCCCGGCCTTCGACTATGCAGAGTTCGAGCCGCACATCGTGCCCAGCACCAAGAACCCGTAGGTGGTC
# Tested on: P19 cells
# Assay: Lentiviral transduction silencing experiment, UCOE linked to CMV, EF1α, RSV or PGK promoter driving GFP
# Format: cell-based, mouse
# Details: for improvement over A2UCOE (2.2 kb) / improvement over the 1.2 kb 3′UCOE / improvement over the negative control: RSV promoter, day 26
# Excerpt: The graphs show the raw data of measured percent GFP positive cells (% GFP+) for each construct over time. Transduced populations were sorted into triplicate wells using FACS at day 0 (5 days after lentiviral transductions) to begin the study at 100% GFP positive cells. Expression is lost quickly within the first 10 days, and then stabilizes around day 15. Data is reported as mean±SD from biological triplicates. Two positive UCOE controls (A2UCOE, 3′UCOE) and a negative control (no insulator region) were used.
# Percent GFP positive cells at the final timepoint (day 26 for CMV and RSV, day 27 for PGK and EF1α) of the lentivirus silencing experiment across the four tested promoters is plotted. P19 cells were FACS-sorted five days after transduction (day 0) and then assayed over a 26 or 27-day time period thereafter. Data is reported as mean±SD from three biological replicates.
# Two plasmids (pCS3800: encoding HIV-1 Gag; pCS380: encoding VSVg envelope protein) were used with varying versions of the donor plasmid pCS3799. HEK293T cells were plated at 5×10^6 cells in a 10 cm dish. Twenty-four hours after plating, the three plasmids (10 μg donor, 8 μg pCS3800, 10 μg pCS3801) were co-transfected together using a calcium phosphate protocol (Zufferey, R. T. and Trono, D. (2001) Current Protocols in Human Genetics, 26 (1), 12.10.1-12.10.12; DOI: 10.1002/0471142905.hg1210s26 (55)). The total DNA was brought to 500 μL in water, to which 500 μL of 2×HEPES-buffered saline, pH7.0 (Alfa Aesar) was added and mixed. One-tenth of the total volume (100 μL) of 2.5 M calcium chloride (Sigma-Aldrich) was then added to the mixture, followed by a 20-minute incubation. The mixture was then added to the plate in a dropwise manner. Media was replaced six hours later, and the supernatant was collected at 48 hr after the transfection, filtered through 0.4 μm filter, and frozen at −80° C. in 1 mL aliquots. Lentiviral aliquots were thawed in a 37° C. bead bath before transductions.
# P19 cells were plated at 20-30,000 cells/well in 12-well plates one day before transduction. Twenty-four hours after plating, cells were transduced at varying dilutions of the lentiviral stock (ranging from 1:2 to 1:100) in DMEM+10% FBS with 8 μg/mL polybrene (Santa Cruz Biotechnologies). Media was refreshed on P19 cells 24 hours after transduction, and cells were passaged and assayed through a MACSQuant® VYB flow cytometer (Miltenyi Biotec) 48 h after transduction. MOI was determined by reporter expression at this timepoint using the following formula: MOI=ln (1/1-p) where p is the % of cells that are GFP positive at 48 hours post-transduction (Chen, S. et al. (2015) Cell, 160, 1246-1260 (56)).
# Cells were FACS-sorted on the BD Influx™ cell sorter at the Stanford FACS Facility using the 488-nm laser and 525/40 filter to assay GFP expression. After gating for singlets and viability, GFP+ gate was drawn to be <0.1% GFP positive in non-transduced P19 cells. GFP+ gates were re-drawn for each promoter set to avoid the ˜10% highest and lowest expressing cells within the GFP+ gate, but the same gate was used for every experimental condition under the same promoter. Triplicate wells of each population (12-15,000 cells/well in a 24-well plate) were collected.
# Fluorescence data throughout silencing experiments was obtained using a MACSQuant® VYB flow cytometer (Miltenyi Biotec). EGFP was measured through the 488-nm laser and 525/50 nm band pass filter. Flow cytometry data was analyzed using the FlowJo™ single cell flow cytometry analysis software (Tree Star). After being gated for singlets and viability, GFP+ gates in FlowJo were drawn such that a non-transfected or non-transduced P19 cell population was at 1% GFP+. Median values reported are of cells within the GFP+ gate, both % GFP positive and median are reported with the standard deviation of biological replicates. […]
Molecule,"expressing cells / improvement over the negative control (PGK promoter, day 27)",improvement over A2UCOE (2.2 kb),improvement over the 1.2 kb 3′UCOE,improvement over the negative control
B1,more than 8 fold,at least 1.5 fold,≥ 2.4 fold,≥ 9 fold
B2,,at least 1.5 fold,≥ 2.4 fold,≥ 9 fold
B3,,at least 1.5 fold,≥ 2.4 fold,≥ 9 fold
